PubChem BioAssay AID1053208, Peter MacCallum Cancer Centre – 2014
Purpose: 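Synthetic lethal interactions between gene loss and doxorubicin in osteosarcoma cells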 (primary screen). Cells: mouse osteosarcoma cells, early-passage culture from an engineered mouse model of fibroblastic bone tumour. Reagent: siRNA pool against mouse genes, 40 nM. Time to read-out: about 120 h (48 h before drug, then 72 h with drug). Conditions: doxorubicin 100 nM for 72 h, roughly 30-40% inhibitory dose. Measurement: 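Viability read as ATP luminescence after 72 h of 100 nM doxorubicin or none, duplicate wells averaged, scaled to non-targeting siRNA, then expressed as robust z-scores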. Scale: viability z-score with doxorubicin: higher = more viable cells under doxorubicin; viability z-score without drug: higher = more viable cells with knock-down alone. Call rule: 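Called active if knock-down leaves viability unchanged without drug (z within -2 to 2) but lowers it with doxorubicin (z at or under -2)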.
The deposit covers about 17,000 reagents; below is a part drawn at random. Of all reagents, 788 (4.7%) are marked active. 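Calls rest on z-score classes alone; an extra cut-off of viability at most 70% of control was not applied to them.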 Entries without a mark were called inactive. Further read-outs or replicates are left out here.

For Mela, what was measured?
combined z-score class: no change with or without drug; viability z-score with doxorubicin: 1.8; viability z-score without drug: 0.84

With Pan2, what does the deposit list?
combined z-score class: no change with or without drug; viability z-score with doxorubicin: 0; viability z-score without drug: 0.67

With Glis1, what does the deposit list?
combined z-score class: no change with or without drug; viability z-score with doxorubicin: 1.01; viability z-score without drug: 0.51

What is on record for Fxyd3?
combined z-score class: no change with or without drug; viability z-score with doxorubicin: -0.22; viability z-score without drug: -0.17

How did the screen score Rtn4r?
combined z-score class: no change with or without drug; viability z-score with doxorubicin: -0.9; viability z-score without drug: -0.67

What is on record for Cux2?
combined z-score class: no change with or without drug; viability z-score with doxorubicin: 0.45; viability z-score without drug: 0.51

How did the screen score Jmjd6?
combined z-score class: no change with or without drug; viability z-score with doxorubicin: 1.46; viability z-score without drug: 1.18

With Hoxa1, what was measured?
combined z-score class: no change with or without drug; viability z-score with doxorubicin: 0; viability z-score without drug: -0.17

With Or52u1, what was measured?
combined z-score class: no change with or without drug; viability z-score with doxorubicin: 0.11; viability z-score without drug: -0.17

What did the screen give for Or5b101?
combined z-score class: no change with or without drug; viability z-score with doxorubicin: -0.9; viability z-score without drug: -0.84

With Trdv2-2, what does the deposit list?
combined z-score class: no change with or without drug; viability z-score with doxorubicin: 0; viability z-score without drug: -0.17

What did the screen give for Usp30?
combined z-score class: no change with or without drug; viability z-score with doxorubicin: -0.9; viability z-score without drug: -0.84

Which result is listed for Evx2?
combined z-score class: no change with or without drug; viability z-score with doxorubicin: -1.12; viability z-score without drug: 0.51

What did the screen give for Fa2h?
combined z-score class: no change with or without drug; viability z-score with doxorubicin: -0.11; viability z-score without drug: 0.17

Which result is listed for Rexo2?
combined z-score class: no change with or without drug; viability z-score with doxorubicin: 1.12; viability z-score without drug: 0.34

For Cmah, how do the results read?
combined z-score class: no change with or without drug; viability z-score with doxorubicin: -1.57; viability z-score without drug: 0.17

What did the screen give for Strip1?
combined z-score class: high cell count without drug only; viability z-score with doxorubicin: -0.9; viability z-score without drug: 2.19

What is on record for Lrrc8d?
combined z-score class: no change with or without drug; viability z-score with doxorubicin: 1.24; viability z-score without drug: 1.52

How did the screen score Capn6?
combined z-score class: no change with or without drug; viability z-score with doxorubicin: -1.35; viability z-score without drug: -1.52

How did the screen score Colec12?
combined z-score class: high cell count without drug only; viability z-score with doxorubicin: 1.35; viability z-score without drug: 2.02

With 4933430I17Rik, what was measured?
combined z-score class: no change with or without drug; viability z-score with doxorubicin: -1.35; viability z-score without drug: -0.51

How did the screen score Lag3?
combined z-score class: no change with or without drug; viability z-score with doxorubicin: 1.12; viability z-score without drug: 1.18

For Ndufa8, what does the deposit list?
combined z-score class: low cell count with and without drug; viability z-score with doxorubicin: -3.37; viability z-score without drug: -2.19

What did the screen give for Gsta2?
combined z-score class: no change with or without drug; viability z-score with doxorubicin: 0; viability z-score without drug: -0.84

For Wdr55, what does the deposit list?
combined z-score class: no change with or without drug; viability z-score with doxorubicin: 1.12; viability z-score without drug: 0.84

For Pkn1, what does the deposit list?
combined z-score class: no change with or without drug; viability z-score with doxorubicin: 0; viability z-score without drug: 0.17

What did the screen give for Rit1?
combined z-score class: high cell count without drug only; viability z-score with doxorubicin: 1.69; viability z-score without drug: 2.02

How did the screen score Wdr47?
combined z-score class: no change with or without drug; viability z-score with doxorubicin: 0.22; viability z-score without drug: 1.85

Which result is listed for Atp6v1b2?
combined z-score class: no change with or without drug; viability z-score with doxorubicin: -0.67; viability z-score without drug: -0.17

With Cimap2, what was measured?
combined z-score class: no change with or without drug; viability z-score with doxorubicin: -0.22; viability z-score without drug: 1.35

For Lsamp, what was measured?
combined z-score class: no change with or without drug; viability z-score with doxorubicin: 0; viability z-score without drug: 0

What did the screen give for Ipo4?
combined z-score class: no change with or without drug; viability z-score with doxorubicin: -0.67; viability z-score without drug: -1.18

For Tafa4, what was measured?
combined z-score class: no change with or without drug; viability z-score with doxorubicin: -0.45; viability z-score without drug: -0.67

With Vcpip1, how do the results read?
combined z-score class: no change with or without drug; viability z-score with doxorubicin: 0.34; viability z-score without drug: 0.51

For Mefv, how do the results read?
combined z-score class: no change with or without drug; viability z-score with doxorubicin: 0.22; viability z-score without drug: 0.67

Which result is listed for Tmem45a?
combined z-score class: no change with or without drug; viability z-score with doxorubicin: 1.12; viability z-score without drug: 0.51

Targets above whose gene name starts with W or w:
Wdr55 — combined z-score class: no change with or without drug; viability z-score with doxorubicin: 1.12; viability z-score without drug: 0.84
Wdr47 — combined z-score class: no change with or without drug; viability z-score with doxorubicin: 0.22; viability z-score without drug: 1.85
